{"source": "patent US20220227815A1", "about": "(University of Kansas, priority 2019, published 2022)", "assay": "general procedure: Fmoc solid-phase peptide synthesis; amide resin (HAV6, ADTC5 precursors); Fmoc-Val-Wang resin (N-to-C cyclic peptide precursors); HATU, DIEA", "conditions": "whole synthesis, analytical HPLC, Luna C18 column", "data": [{"substance": "cyclo(1,7)acetyl-CDTPPVC-NH2", "values": [{"measurement": "final HPLC purity", "result": ">95", "unit": "% pure"}]}]}
